{"source": "paper PMC5992204", "molecular_target": "T1, Zfp90 (mouse) (UniProt Q61967)", "T1 sequence (looked up, limits assumed)": "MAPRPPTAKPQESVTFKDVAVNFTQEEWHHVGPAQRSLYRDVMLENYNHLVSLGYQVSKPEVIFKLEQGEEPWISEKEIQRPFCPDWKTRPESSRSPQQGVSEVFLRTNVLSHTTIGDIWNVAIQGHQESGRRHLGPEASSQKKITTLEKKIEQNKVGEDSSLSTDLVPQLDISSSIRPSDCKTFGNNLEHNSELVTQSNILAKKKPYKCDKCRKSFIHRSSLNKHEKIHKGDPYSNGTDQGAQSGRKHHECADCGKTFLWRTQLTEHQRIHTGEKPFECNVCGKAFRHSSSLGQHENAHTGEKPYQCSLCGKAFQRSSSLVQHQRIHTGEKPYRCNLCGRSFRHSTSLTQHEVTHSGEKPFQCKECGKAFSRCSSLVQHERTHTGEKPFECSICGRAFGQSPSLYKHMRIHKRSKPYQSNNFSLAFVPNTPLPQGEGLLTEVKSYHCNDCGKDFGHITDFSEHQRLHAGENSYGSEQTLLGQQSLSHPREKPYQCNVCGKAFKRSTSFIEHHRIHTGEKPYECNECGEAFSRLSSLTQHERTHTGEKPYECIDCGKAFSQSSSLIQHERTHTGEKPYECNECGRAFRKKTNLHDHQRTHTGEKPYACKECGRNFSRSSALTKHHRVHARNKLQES", "test": "EMSA", "settings": "Light Shift Chemiluminescent EMSA kit (named RNA EMSA kit), 20 min at RT; 4% polyacrylamide gel in 0.5x TBE; binding buffer, salt and pH not stated; recombinant protein; label: biotin", "note": "The exact form of at least one protein or probe is not confirmed. Tags and fusion partners may be left off the protein sequences shown.", "data": [{"sequence": "TCTTCTTCCTGCCGACAAGCGAGGGGGTGTGGATCCCGGGAGCTTCCCAGCCCCTCTCT (double strand) [Hoxa9 promoter EMSA probe]", "values": [{"measurement": "binding result", "result": "binds"}]}]}
